Screen size: about 1,900 compounds; about 15 (0.8%) were called active.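 The calls were made as follows: active = every replicate shows at least 50% inhibition; inconclusive = mean inhibition at least 50% but some replicate below; inactive = the rest.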 This is one part of the list.
target: DNA repair protein RAD52 homolog (Homo sapiens) (UniProt P43351); test: RAD52 ssDNA annealing inhibitors, primary screen, biochemical, FRET, single point (AID 651660); details: Recombinant RAD52 ssDNA annealing, FRET fluorescence, 30 min; at 18.7 µM; stronger effect = higher value;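 also: 0% = median of neutral control wells and 100% = median of positive control wells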

Amino acid sequences for entries named in this document (tags omitted). A change or cut given only in a name is not applied to a line headed by its entry.
UniProt P43351: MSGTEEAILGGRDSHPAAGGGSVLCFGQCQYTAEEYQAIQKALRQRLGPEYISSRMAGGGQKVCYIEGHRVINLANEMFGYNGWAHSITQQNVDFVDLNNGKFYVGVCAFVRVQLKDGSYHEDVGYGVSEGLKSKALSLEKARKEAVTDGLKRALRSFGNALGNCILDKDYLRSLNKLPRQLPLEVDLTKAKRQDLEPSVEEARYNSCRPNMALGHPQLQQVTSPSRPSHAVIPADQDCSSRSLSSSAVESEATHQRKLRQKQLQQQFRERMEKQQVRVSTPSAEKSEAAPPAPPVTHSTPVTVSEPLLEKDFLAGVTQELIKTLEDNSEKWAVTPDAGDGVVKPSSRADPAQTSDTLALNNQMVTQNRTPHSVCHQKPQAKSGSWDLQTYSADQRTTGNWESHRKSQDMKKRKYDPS

inhibition, inactive:
CC(C)NS(=O)(=O)c1ccc(OCC(=O)Nc2cccc(F)c2)cc1 0.0325%
CC1(C)c2ccccc2N2CC(=O)NC21/C=C/c1ccco1 (stereo not drawn) -75.3%
COC(=O)c1cc(-c2ccc(C)o2)nc2ccccc12 -16.8%
CN(C)CC/C=C1\c2ccccc2COc2ccccc21 4.76%
CC(C)CCc1noc(CN2CCC(CCN3CCCC3=O)CC2)n1 -7.02%
Cc1oc2c(C)c3oc(=O)c4c(c3cc2c1C)CCCC4 -0.076%
CCCCC(=O)O[C@]1(C(=O)CO)CC[C@H]2[C@@H]3CCC4=CC(=O)CC[C@]4(C)[C@H]3[C@@H](O)C[C@@]21C -7.18%
CCc1cccc2c3c([nH]c12)C(CC)(CC(=O)O)OCC3 (stereo not drawn) -2.3%
CCCC(=O)Nc1ccccc1NC(C)=O -0.651%
COc1ccc(OC)c(NC2=C(Cl)C(=O)N(Cc3ccccc3)C2=O)c1 -4.08%
COc1ccc(CNC(=O)c2cc3c(=O)n4ccccc4nc3n(Cc3cccnc3)c2=N)cc1 -27.7%
COc1ccc(CNC(=O)C2CCCN2C)cc1OC (stereo not drawn) 0.649%
COc1ccccc1Oc1c(C)oc2c(CN3CCN(CCO)CC3)c(O)ccc2c1=O 1.49%
COc1ccccc1N=CC1=C(O)CC(c2ccccc2)CC1=O (stereo not drawn) -25.4%
C=C1C2(C(=O)Nc3ccc(SC(F)F)cc3)CCC(C2)C1(C)C (stereo not drawn) 12.2%
CC[N+]1(CC)CC2=Cc3ccccc3CC2C1 (stereo not drawn) -3.96%
COc1ccc2c(CCNC(=O)c3ccc([N+](=O)[O-])cc3)c[nH]c2c1 -2.51%
Cc1cccc(Oc2coc3cc(OC(=O)c4cncc(Br)c4)ccc3c2=O)c1 -14.2%
CCNC(=O)C(Cc1ccccc1)NC(=O)OCc1ccccc1 (stereo not drawn) -6.26%
O=C1OC(=O)C2C1[C@@H]1CC[C@H]2O1 (stereo partly drawn) -10.6%
COc1ccc2c(c1)CC[C@@H]1[C@@H]2CC[C@]2(C)C(=O)CC[C@@H]12 9.56%
OC(CCN1CCCCC1)(c1ccccc1)C1CCCCC1 (stereo not drawn) 5.63%
CCOC(=O)c1cc2c(nc1N)CC(C)(CC)OC2 (stereo not drawn) -11.6%
O=C(CN1C(=O)C2CCc3[nH]c4ccccc4c3C2C1=O)N1CCCC1 (stereo not drawn) -14.6%
Nc1cc(-c2ccncc2)c[nH]c1=O -48.5%
CS(=O)c1ccccc1O (stereo not drawn) 5.06%
Cc1cccc(C2=N/C(=C\c3cccnc3)C(=O)O2)c1 -6.72%
COc1ccc(C2C(C(=O)c3ccco3)=C(O)C(=O)N2CC2CCCO2)cc1 (stereo not drawn) -24.3%
CCOC(=O)C(=Cc1ccccc1OC)C(=O)OCC 1.51%
COc1cc(C2Nc3ccccc3NC3=C2C(=O)CC(c2ccc(OC)c(OC)c2)C3)ccc1O (stereo not drawn) 5.95%
COc1ccc(C(=O)Nc2ccc(OC)c([N+](=O)[O-])c2)cc1Br 5.07%
Cc1ccccc1-c1coc2cc(O)ccc2c1=O -13.2%
CCC1CCc2c(sc(NC(=O)c3cccnc3)c2C(N)=O)C1 (stereo not drawn) -5.46%
COc1cc(C(=O)CCN2CCC(c3ccccc3)C2)cc(OC)c1OC (stereo not drawn) 1.35%
Cn1c([N+](=O)[O-])cnc1COC(N)=O -5.31%
Fc1ccccc1CNCCC(Cc1ccccc1)c1ccc2c(c1)OCO2 (stereo not drawn) 27.4%
Cc1ccc2nc3c(cc(C(=O)NCC4CCCO4)c(=N)n3CCCOC(C)C)c(=O)n2c1 (stereo not drawn) -9.5%
Cc1coc2c1c(C)cc1oc(=O)c(Cc3ccccc3)c(C)c12 -10.3%
Cc1cc(C)c2c(CCl)cc(=O)oc2c1 3.63%
Cc1nnc(SCC(=O)N2CCCC(C(=O)c3ccc(Cl)cc3)C2)o1 (stereo not drawn) -9.38%
CNCCC(Oc1ccc(C(F)(F)F)cc1)c1ccccc1 (stereo not drawn) 18.8%
Cc1ccc(C(=O)NCCNC(=O)c2ccccc2)cc1 -3.73%
CC(=O)Nc1cc(O)cc(O)c1 -8.45%
COC(=O)c1cc(OC)c(OC)c(OC)c1[N+](=O)[O-] -11.8%
COc1ccc2nc(NC(=O)Nc3ccccc3)sc2c1 3.21%
COc1cccc2c(O)cc(=O)n(C)c12 6.83%
C[C@]12CC[C@@H]3c4cc(O)c(O)cc4CC[C@H]3[C@@H]1CC[C@@H]2O 0.968%
CCCCNC(=O)NS(=O)(=O)c1ccc(C)cc1 -12.7%
CC(=O)[C@H]1CC[C@H]2[C@@H]3C[C@H](C)C4=CC(=O)CC[C@]4(C)[C@H]3[C@@H](O)C[C@]12C 2.43%
CC(C)CC1c2[nH]c3ccccc3c2CCN1C(=O)CCC(=O)N(C)C (stereo not drawn) -3.31%
CC(=O)N1c2ccccc2C(C)=CC1(C)C -2.15%
CCOCc1cc(C)[nH]c(=O)c1C#N -3.01%
O=C1c2ccccc2C2(c3ccccc3)NCCN12 (stereo not drawn) -0.98%
O=C(CCC(=O)c1cccs1)c1cccs1 1.81%
Cc1ccc2c(c1)C(C)(C)[C@]1(C)NC(=O)CCN21 -137%
CC(=O)OC1c2c(ccc3ccc(=O)oc23)OC(C)(C)C1OC(=O)CC(C)C (stereo not drawn) 1.13%
O=C(CN1CC[n+]2c(-c3cccs3)csc21)c1ccc(Br)cc1 16.6%
CCOC(=O)c1c(C)oc2c1C(=O)c1ccccc1C2=O -2.13%
Cc1ccccc1NC(=O)C1c2ccccc2Oc2ccccc21 -5.77%
Cc1ccc(C(CC(=O)NCc2ccco2)c2ccc(OC(C)C)cc2)cc1 (stereo not drawn) -9.23%
COc1cccc(CC2CC(=O)N(c3ccc4c(C)cc(=O)oc4c3)C2=O)c1 (stereo not drawn) -4.9%
O=C1CCc2cc(OCCCCc3nnnn3C3CCCCC3)ccc2N1 9.44%
CCS(=O)(=O)CCn1c([N+](=O)[O-])cnc1C 7.76%

Nothing new here: 16 of the compounds above.
inhibition, inactive:
COc1ccc(C(=O)Nc2ccc(OC)c([N+](=O)[O-])c2)cc1Br 5.07%
Cc1ccccc1-c1coc2cc(O)ccc2c1=O -13.2%
CCC1CCc2c(sc(NC(=O)c3cccnc3)c2C(N)=O)C1 (stereo not drawn) -5.46%
COc1cc(C(=O)CCN2CCC(c3ccccc3)C2)cc(OC)c1OC (stereo not drawn) 1.35%
Cn1c([N+](=O)[O-])cnc1COC(N)=O -5.31%
Fc1ccccc1CNCCC(Cc1ccccc1)c1ccc2c(c1)OCO2 (stereo not drawn) 27.4%
Cc1ccc2nc3c(cc(C(=O)NCC4CCCO4)c(=N)n3CCCOC(C)C)c(=O)n2c1 (stereo not drawn) -9.5%
Cc1coc2c1c(C)cc1oc(=O)c(Cc3ccccc3)c(C)c12 -10.3%
Cc1cc(C)c2c(CCl)cc(=O)oc2c1 3.63%
Cc1nnc(SCC(=O)N2CCCC(C(=O)c3ccc(Cl)cc3)C2)o1 (stereo not drawn) -9.38%
CNCCC(Oc1ccc(C(F)(F)F)cc1)c1ccccc1 (stereo not drawn) 18.8%
Cc1ccc(C(=O)NCCNC(=O)c2ccccc2)cc1 -3.73%
CC(=O)Nc1cc(O)cc(O)c1 -8.45%
COC(=O)c1cc(OC)c(OC)c(OC)c1[N+](=O)[O-] -11.8%
COc1ccc2nc(NC(=O)Nc3ccccc3)sc2c1 3.21%
COc1cccc2c(O)cc(=O)n(C)c12 6.83%

Source: PubChem BioAssay AID651660 (Broad Institute, 2012)
